Values of other authors as cited in patent US20180140703A1, “TUMOR RADIOSENSITIZATION WITH ANTIBODY CONJUGATES” (The Regents of the University California, priority 2016, published 2018).
For at least one compound, name, drawing or mass did not settle the structure. Square brackets hold non-standard residues; d marks the D form. Peptide text beside a SMILES is read from it. * marks the point of attachment. Dolaproine = CO[C@@H]([C@@H]1CCCN1)[C@@H](C)C(=O)O; Dil = CC[C@H](C)[C@H](NC)[C@@H](CC(=O)O)OC; X1 = C[C@@H](N*)[C@@H](O)c1ccccc1; NMeV = CN[C@H](C(=O)O)C(C)C

Details: cited from earlier work

For CC[C@H](C)[C@@H]([C@@H](CC(=O)N1CCC[C@H]1[C@H](OC)[C@@H](C)C(=O)N[C@H](C)[C@@H](O)c1ccccc1)OC)N(C)C(=O)[C@@H](NC(=O)[C@@H](NC)C(C)C)C(C)C [MMAE, monomethyl auristatin E] (H-[NMeV]V[Dil][Dolaproine]-X1), the radiosensitizer effective level is listed as “effective at the single nM level”.
